Results from patent publication US20150361165A1 (SYDDANSK UNIVERSITET, published 2015).
No constants are given. Whether binding was seen depends on the method and setting. For some assays here: Binding seen in cells or lysates may run through a third protein. Some results given as binding are weak or reduced against the parent protein; the word gives no strength.

By UniProt entry, the sequences of proteins in these tests, tags left out. Where a name states a change or a piece, a line headed by the entry shows the natural chain unless it says otherwise. Residues count along the entry.
UniProt P06756: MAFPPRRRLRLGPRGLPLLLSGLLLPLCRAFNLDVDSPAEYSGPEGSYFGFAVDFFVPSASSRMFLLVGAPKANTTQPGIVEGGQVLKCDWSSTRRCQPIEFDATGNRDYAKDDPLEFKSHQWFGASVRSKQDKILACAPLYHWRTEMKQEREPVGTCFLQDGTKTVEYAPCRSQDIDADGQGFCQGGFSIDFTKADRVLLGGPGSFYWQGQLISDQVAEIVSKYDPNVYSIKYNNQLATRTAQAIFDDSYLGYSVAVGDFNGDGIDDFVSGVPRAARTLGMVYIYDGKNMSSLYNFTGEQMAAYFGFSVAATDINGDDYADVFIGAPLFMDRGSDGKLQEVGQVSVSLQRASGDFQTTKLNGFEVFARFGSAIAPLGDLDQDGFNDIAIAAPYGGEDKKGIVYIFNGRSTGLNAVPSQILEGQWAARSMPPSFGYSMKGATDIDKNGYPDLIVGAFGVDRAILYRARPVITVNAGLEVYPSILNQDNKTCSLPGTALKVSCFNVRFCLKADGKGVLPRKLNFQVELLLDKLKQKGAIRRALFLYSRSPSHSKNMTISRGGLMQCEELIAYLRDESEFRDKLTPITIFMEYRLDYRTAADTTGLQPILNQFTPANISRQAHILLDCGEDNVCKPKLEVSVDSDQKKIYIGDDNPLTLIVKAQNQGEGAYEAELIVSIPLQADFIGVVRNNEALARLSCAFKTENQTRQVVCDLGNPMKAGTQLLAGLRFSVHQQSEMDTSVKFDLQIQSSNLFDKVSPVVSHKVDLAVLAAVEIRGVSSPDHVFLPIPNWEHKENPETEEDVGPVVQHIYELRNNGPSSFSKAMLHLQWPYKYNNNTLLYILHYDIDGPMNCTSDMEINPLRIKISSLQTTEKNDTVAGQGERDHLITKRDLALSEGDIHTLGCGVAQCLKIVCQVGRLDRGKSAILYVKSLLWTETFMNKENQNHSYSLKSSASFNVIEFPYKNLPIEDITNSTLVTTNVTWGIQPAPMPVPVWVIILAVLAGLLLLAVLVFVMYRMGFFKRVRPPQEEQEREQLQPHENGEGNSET
UniProt P18084: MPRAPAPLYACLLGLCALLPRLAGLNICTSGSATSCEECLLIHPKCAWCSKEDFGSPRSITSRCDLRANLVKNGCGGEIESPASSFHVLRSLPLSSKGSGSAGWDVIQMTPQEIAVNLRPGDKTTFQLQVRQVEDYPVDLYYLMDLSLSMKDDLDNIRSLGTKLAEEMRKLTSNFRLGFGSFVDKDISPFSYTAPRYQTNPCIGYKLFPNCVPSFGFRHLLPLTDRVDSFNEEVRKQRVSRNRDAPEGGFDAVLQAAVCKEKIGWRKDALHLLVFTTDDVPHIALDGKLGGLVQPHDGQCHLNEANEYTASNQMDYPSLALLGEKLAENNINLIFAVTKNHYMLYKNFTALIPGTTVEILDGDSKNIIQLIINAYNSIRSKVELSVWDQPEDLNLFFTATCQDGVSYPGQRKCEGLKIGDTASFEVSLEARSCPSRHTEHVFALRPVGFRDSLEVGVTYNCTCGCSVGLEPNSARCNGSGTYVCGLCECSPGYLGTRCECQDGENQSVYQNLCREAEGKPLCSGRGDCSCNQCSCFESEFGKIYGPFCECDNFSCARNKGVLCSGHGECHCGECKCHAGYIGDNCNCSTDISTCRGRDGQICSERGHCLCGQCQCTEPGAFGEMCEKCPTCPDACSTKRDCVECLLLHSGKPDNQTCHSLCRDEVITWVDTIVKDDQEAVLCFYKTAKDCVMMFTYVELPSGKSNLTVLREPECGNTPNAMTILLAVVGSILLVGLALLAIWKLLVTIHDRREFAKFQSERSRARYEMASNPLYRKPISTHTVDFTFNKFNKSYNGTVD
UniProt P04985, residues 27-747: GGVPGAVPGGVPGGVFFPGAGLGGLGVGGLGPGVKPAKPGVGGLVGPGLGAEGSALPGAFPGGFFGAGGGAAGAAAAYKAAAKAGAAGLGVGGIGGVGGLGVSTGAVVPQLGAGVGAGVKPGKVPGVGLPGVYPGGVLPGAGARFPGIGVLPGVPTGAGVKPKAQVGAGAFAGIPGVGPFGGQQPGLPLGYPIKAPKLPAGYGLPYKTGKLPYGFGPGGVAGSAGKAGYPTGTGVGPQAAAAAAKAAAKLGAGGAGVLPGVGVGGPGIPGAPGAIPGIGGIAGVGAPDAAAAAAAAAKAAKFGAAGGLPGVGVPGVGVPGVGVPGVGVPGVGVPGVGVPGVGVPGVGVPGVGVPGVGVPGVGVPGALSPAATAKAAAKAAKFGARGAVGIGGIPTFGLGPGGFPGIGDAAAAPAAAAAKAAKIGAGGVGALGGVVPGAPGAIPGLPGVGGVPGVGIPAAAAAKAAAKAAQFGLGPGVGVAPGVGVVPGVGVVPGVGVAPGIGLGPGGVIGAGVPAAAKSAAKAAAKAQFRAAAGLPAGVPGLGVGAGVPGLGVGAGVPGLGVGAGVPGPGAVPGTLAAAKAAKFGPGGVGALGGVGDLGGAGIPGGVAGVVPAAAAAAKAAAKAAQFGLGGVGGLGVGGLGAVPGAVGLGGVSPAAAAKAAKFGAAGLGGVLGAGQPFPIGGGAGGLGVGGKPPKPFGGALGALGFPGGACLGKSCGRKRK
UniProt P02453: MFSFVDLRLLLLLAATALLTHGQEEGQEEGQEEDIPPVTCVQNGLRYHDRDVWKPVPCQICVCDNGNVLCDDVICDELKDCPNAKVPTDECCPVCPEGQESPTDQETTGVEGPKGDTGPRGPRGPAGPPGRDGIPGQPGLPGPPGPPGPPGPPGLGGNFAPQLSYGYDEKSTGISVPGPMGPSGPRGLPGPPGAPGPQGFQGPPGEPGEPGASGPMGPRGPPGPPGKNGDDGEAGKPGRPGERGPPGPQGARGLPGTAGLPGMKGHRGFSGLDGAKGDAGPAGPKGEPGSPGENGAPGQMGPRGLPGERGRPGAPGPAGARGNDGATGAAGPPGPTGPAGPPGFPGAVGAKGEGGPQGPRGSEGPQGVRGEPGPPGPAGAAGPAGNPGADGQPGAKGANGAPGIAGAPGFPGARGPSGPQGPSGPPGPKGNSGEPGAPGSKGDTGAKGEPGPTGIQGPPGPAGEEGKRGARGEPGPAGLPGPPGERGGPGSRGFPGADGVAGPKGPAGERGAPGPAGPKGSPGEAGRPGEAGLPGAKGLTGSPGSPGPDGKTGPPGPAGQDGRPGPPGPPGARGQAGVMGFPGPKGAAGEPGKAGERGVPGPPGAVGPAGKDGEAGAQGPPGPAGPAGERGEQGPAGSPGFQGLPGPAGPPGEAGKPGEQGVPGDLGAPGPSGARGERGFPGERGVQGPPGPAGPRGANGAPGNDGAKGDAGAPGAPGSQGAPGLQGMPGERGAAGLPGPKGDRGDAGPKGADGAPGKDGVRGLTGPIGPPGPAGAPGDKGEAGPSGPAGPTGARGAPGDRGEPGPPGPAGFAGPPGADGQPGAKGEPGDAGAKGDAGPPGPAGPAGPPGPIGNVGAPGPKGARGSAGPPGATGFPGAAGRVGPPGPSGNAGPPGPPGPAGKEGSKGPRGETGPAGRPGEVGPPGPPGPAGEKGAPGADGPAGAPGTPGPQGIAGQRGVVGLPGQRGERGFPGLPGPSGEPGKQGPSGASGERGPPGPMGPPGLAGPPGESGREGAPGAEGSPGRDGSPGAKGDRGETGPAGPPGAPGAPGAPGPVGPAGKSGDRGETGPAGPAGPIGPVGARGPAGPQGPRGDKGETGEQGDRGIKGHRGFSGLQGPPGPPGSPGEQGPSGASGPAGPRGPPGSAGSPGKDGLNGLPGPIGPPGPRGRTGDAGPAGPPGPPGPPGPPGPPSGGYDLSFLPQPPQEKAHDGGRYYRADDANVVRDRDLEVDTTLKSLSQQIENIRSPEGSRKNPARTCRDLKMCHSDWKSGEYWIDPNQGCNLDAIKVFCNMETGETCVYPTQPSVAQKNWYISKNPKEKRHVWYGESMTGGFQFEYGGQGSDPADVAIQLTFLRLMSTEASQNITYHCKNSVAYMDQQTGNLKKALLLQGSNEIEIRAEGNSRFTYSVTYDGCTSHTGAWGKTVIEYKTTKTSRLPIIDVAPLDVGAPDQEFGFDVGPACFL
UniProt P02465: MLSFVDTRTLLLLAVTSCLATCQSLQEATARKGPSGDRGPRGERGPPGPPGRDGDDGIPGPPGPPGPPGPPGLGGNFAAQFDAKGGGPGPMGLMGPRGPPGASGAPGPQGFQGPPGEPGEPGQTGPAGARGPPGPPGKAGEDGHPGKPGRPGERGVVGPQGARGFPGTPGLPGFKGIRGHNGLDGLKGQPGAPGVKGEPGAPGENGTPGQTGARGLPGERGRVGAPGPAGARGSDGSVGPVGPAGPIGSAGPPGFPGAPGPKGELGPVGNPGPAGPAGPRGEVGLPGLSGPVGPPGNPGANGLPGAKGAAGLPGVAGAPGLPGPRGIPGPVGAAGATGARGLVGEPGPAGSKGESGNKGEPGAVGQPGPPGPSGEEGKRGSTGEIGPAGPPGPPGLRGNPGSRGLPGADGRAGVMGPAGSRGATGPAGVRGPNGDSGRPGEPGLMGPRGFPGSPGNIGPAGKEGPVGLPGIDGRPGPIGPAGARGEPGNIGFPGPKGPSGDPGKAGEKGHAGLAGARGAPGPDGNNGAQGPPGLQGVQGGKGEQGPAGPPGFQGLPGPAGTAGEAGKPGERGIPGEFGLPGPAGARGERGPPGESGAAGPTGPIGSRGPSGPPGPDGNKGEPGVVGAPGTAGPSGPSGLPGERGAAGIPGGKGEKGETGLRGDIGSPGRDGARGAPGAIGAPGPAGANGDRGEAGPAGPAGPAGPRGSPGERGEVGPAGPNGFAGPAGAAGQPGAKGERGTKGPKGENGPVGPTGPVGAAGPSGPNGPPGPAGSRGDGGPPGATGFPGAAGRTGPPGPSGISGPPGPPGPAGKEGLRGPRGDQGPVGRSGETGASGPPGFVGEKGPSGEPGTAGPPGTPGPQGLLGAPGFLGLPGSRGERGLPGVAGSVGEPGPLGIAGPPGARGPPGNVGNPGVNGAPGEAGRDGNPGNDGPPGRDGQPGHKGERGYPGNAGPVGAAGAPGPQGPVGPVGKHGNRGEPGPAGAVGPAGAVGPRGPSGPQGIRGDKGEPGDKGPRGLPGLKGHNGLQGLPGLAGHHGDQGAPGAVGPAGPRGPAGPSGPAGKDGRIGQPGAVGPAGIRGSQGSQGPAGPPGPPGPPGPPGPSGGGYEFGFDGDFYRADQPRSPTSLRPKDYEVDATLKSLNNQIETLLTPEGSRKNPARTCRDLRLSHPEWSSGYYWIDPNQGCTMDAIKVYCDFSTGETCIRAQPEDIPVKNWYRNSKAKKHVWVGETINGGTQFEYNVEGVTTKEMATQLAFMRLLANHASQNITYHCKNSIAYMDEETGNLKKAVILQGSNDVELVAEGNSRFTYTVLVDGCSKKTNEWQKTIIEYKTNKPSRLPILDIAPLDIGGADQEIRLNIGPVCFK

Columns and labels:
[1] = target: integrin αvβ5 on HAoSMCs (human) (UniProt P06756+P18084); assay: adult HAoSMC line, data not shown
[2] = target: insoluble elastin from bovine aorta (bovine) (UniProt P04985); assay: pull-down by insoluble fibrils, supernatant measured by MFAP4 ELISA (FIG. 2G)
[3] = target: T1, insoluble type I collagen from bovine Achilles tendon (bovine) (UniProt P02453+P02465); assay: as above
[4] = target: insoluble elastin from bovine aorta (bovine) (UniProt P04985); assay: pull-down by insoluble fibrils, supernatant measured by MFAP4 ELISA, Ca2+ or EDTA
[5] = target: T1, insoluble type I collagen from bovine Achilles tendon (bovine); assay: as above

Measured: binding

B1: recombinant MFAP4 (rMFAP4), wild-type (ligand, human, UniProt P55083 22-255, looked up)
chain: VSGIRGDALERFCLQQPLDCDDIYAQGYQSDGVYLIYPSGPSVPVPVFCDMTTEGGKWTVFQKRFNGSVSFFRGWNDYKLGFGRADGEYWLGLQNMHLLTLKQKYELRVDLEDFENNTAYAKYADFSISPNAVSAEEDGYTLFVAGFEDGGAGDSLSYHSGQKFSTFDRDQDLFVQNCAALSSGAFWFRSCHFANLNGFYLGGSHLSYANGINWAQWKGFYYSLKRTEMKIRRA
binds: all assays above
